Values of other authors as cited in US20240122962A1, “PHARMACEUTICAL COMPOSITION FOR USE IN THE PREVENTION OR TREATMENT OF A CONDITION ASSOCIATED WITH A REDUCTION IN THE NUMBER OF LACTOBACILLI IN THE VAGINA” (priority 2020, published 2024).
At least one compound was matched to its structure with a doubt left.

System: bacterial vaginosis (BV)

## CCC[C@@H]1C[C@@H](C(=O)N[C@@H]([C@H]2O[C@H](SC)[C@H](O)[C@@H](O)[C@H]2O)[C@H](C)Cl)N(C)C1 [Clindamycin, clindamycin]
  effect of 7-day oral treatment compared with metronidazole: equal effects as metronidazole
